PubChem BioAssay AID504834 (National Center for Advancing Translational Sciences (NCATS), 2011)
About 22,000 (6.9%) of roughly 320,000 compounds were called active. This list was built around the results that the source calls inconclusive (neither active nor inactive); the mix of calls is not that of the screen. The call rests on the fitted dose curve; in most records, active means well fitted inhibition curve with a large enough effect; inconclusive means small, poorly fitted or top-dose-only effect, or another doubt; inactive means no such curve, though single readings can be large or run the other way. Potencies of inconclusive entries are doubtful fits and often do not repeat.

test: Primary qHTS for delayed death inhibitors of the malarial parasite plastid, 96 hour incubation; conditions: P. falciparum luciferase reporter growth; series mostly up to 28.7 µM
Procedure, shortened: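 Delayed-death screen, second-generation endpoint: infected erythrocytes, 2% hematocrit, 0.05% parasitemia final; 96 hours at 37 C, 5% CO2; luciferase detection reagent; luminescence decrease equals reduced growth.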
Potency means the concentration at half of the fitted maximal effect.

Q: With `COc1ccc2oc(-c3ccccc3)c(C(=O)O)c2c1` as the compound, how does the Potency read?
A: Its Potency is inconclusive: 18.5 µM [inhibitor, single point].

Q: With `O=C(Nc1ccccn1)c1ccc([N+](=O)[O-])o1` as the compound, how does the Potency read?
A: Its Potency is inconclusive: 0.828 µM [inhibitor, partial curve, poor fit].

Q: With `CSc1nc(N)nc(SCC(=O)c2ccc(C)cc2)c1C#N` as the compound, how does the Potency read?
A: The Potency was inconclusive: 10.4 µM [inhibitor, single point].

Q: Which Potency does the source give for `O=C(CN1C(=O)c2ccccc2S1(=O)=O)Nc1cc(S(=O)(=O)N2CCCCC2)ccc1Cl` here?
A: Its Potency is inconclusive: 16.5 µM [inhibitor, partial curve, poor fit].

Q: Which Potency does the source give for `N=c1n(CCN2CCCCC2)c2ccccc2n1CC(O)COc1ccccc1` (stereo not given) here?
A: Its Potency is “inactive”.

Q: Which Potency does the source give for `O=C(CSc1ccc(Cl)cc1)N/N=C/c1cccnc1` here?
A: Its Potency is inconclusive: 0.0522 µM [inhibitor, full curve, poor fit].

Q: Which Potency does the source give for `O=C(/C=C/c1cn(CC(O)CN2CCCCCC2)c2ccccc12)c1cccs1` (stereo not given) here?
A: Its Potency is “inactive”.

Q: Which Potency does the source give for `COc1ccc(N2CCN(C(=O)CCC(=O)NNc3nc4ccccc4c4nc(C)nn34)CC2)cc1` here?
A: The Potency was inconclusive: 18.5 µM [inhibitor, single point].

Q: For `Cc1ccc(NC(=O)c2ccccc2-c2ccc(C(F)(F)F)cc2)cc1S(=O)(=O)N1CCOCC1`, which Potency is on record?
A: Its Potency is inconclusive: 18.5 µM [inhibitor, single point].

Q: Which Potency does the source give for `O=C(Nc1nccs1)c1cc(-c2ccccn2)nc2c(Cl)cccc12` here?
A: The Potency was inconclusive: 18.5 µM [inhibitor, single point].

Q: Which Potency does the source give for `CN(c1ccccc1)S(=O)(=O)c1ccc(Cl)c(C(=O)Nc2ccc(N3CCOCC3)cc2)c1` here?
A: Its Potency is inconclusive: 5.22 µM [inhibitor, partial curve, poor fit].

Q: With `CCc1ccccc1NC(=O)C1CCCN1C(=O)Nc1ccc(C)cc1` (stereo not given) as the compound, how does the Potency read?
A: The Potency was “inactive”.

Q: With `CCN(c1ccccc1)C1(O)C(=O)c2ccccc2C1=O` as the compound, how does the Potency read?
A: Its Potency is inconclusive: 0.0828 µM [inhibitor, full curve, poor fit].

Q: For `CN(C)Cc1c(C(=O)N/N=C/c2ccccc2OCc2ccc(F)cc2)nnn1-c1nonc1N`, which Potency is on record?
A: Its Potency is “inactive”.

Q: Which Potency does the source give for `O=C(COC(=O)c1ccccc1C(=O)OCC(=O)NCCc1c[nH]c2ccccc12)NCCc1c[nH]c2ccccc12` here?
A: The Potency was active: 11.7 µM.

Q: With `O=C1CN(C(=O)c2ccc(Br)o2)C(c2ccccc2)c2cc(Cl)ccc2N1` (stereo not given) as the compound, how does the Potency read?
A: Its Potency is inconclusive: 13.1 µM [inhibitor, partial curve, poor fit].

Q: With `C/C(=N/Nc1ncc(Br)cn1)c1ccc(Br)cc1` as the compound, how does the Potency read?
A: The Potency was inconclusive: 13.1 µM [inhibitor, single point].

Q: For `CC(=O)c1ccc(OCC(O)CN2CCN(CCN3C(=O)c4cccc5cccc(c45)C3=O)CC2)cc1` (stereo not given), which Potency is on record?
A: Its Potency is “inactive”.

Q: Which Potency does the source give for `CCc1ccc(-c2cc(C)no2)cc1S(=O)(=O)N1CCN(c2ccc(F)cc2)CC1` here?
A: Its Potency is inconclusive: 10.4 µM [inhibitor, single point].

Q: Which Potency does the source give for `COc1cc(CN(C)C(C)C(=O)Nc2ccc([N+](=O)[O-])cc2Cl)ccc1OC(F)F` (stereo not given) here?
A: Its Potency is inconclusive: 10.4 µM [inhibitor, single point].

Q: With `C/C(=N\NC(=O)CCCNc1cccc(C)c1)c1ccncc1` as the compound, how does the Potency read?
A: Its Potency is inconclusive: 10.4 µM [inhibitor, partial curve, poor fit].

Q: Which Potency does the source give for `CC(=O)Nc1ccc(S(=O)(=O)N2CCN(c3nc(C)cc(C)n3)CC2)cc1` here?
A: Its Potency is inconclusive: 18.5 µM [inhibitor, single point].

Q: With `CC(=Nc1ccccc1)c1sc2ccccc2c1O` as the compound, how does the Potency read?
A: Its Potency is “inactive”.

Q: With `CCN(C(=O)c1ccccc1F)c1nc(-c2ccc(OC)cc2)cs1` as the compound, how does the Potency read?
A: The Potency was “inactive”.

Q: For `Cc1cccc(CCNC(=O)C2CCCN(c3ncnc4c3nc3n4CCCCC3)C2)c1` (stereo not given), which Potency is on record?
A: Its Potency is active: 11.7 µM.

Q: Which Potency does the source give for `COc1ccc(N(C(=O)c2snc(C(N)=O)c2N)C(CC(C)C)C(=O)NCC2CCCO2)cc1` (stereo not given) here?
A: The Potency was “inactive”.

Q: With `COc1ccc(NC(=O)Nc2cc(C)ccc2F)cc1` as the compound, how does the Potency read?
A: The Potency was “inactive”.

Q: With `O=C(O)/C=C\c1ccc(Cn2ccnc2)cc1` as the compound, how does the Potency read?
A: The Potency was inconclusive: 0.907 µM [inhibitor, partial curve, poor fit].

Q: With `O=C(Nc1ccc(-c2csnn2)cc1)C(Cl)(Cl)Cl` as the compound, how does the Potency read?
A: Its Potency is inconclusive: 9.28 µM [inhibitor, single point].

Q: Which Potency does the source give for `COc1cc(NC2=Nc3cccc4cccc2c34)cc(OC)c1OC` here?
A: The Potency was inconclusive: 18.5 µM [inhibitor, single point].

Q: With `COC(=O)c1[nH]c(C)c(/C(O)=C2\C(=O)C(=O)N(CCN3CCOCC3)C2c2ccco2)c1C` (stereo not given) as the compound, how does the Potency read?
A: The Potency was “inactive”.

Q: Which Potency does the source give for `O=C(NNC(=O)C1CCCCC1)c1ccc(Br)cc1` here?
A: The Potency was “inactive”.

Q: For `CN(C)c1cccc(C(=O)OCC(=O)N(C)c2ccccc2)c1`, which Potency is on record?
A: The Potency was “inactive”.

Q: For `Cc1ccc(S(=O)(=O)N2[C@@H](c3ccccc3F)C(C(=O)O)=CC[C@H]2c2ccc3c(c2)OCO3)cc1`, which Potency is on record?
A: The Potency was active: 11.7 µM.

Q: Which Potency does the source give for `N#Cc1nc(Cc2ccccc2)oc1NCCN1CCOCC1` here?
A: Its Potency is “inactive”.

Q: For `CCOc1cc(S(=O)(=O)N2CCCC2)ccc1Cl`, which Potency is on record?
A: Its Potency is active: 11.7 µM.

Q: Which Potency does the source give for `O=C(NCC(=O)N(CC1CCCO1)C1(C(=O)NC2CCCCC2)CCCCC1)c1ccccc1` (stereo not given) here?
A: The Potency was inconclusive: 13.1 µM [inhibitor, partial curve, poor fit].

Q: Which Potency does the source give for `COc1ccc(C(=O)NCC(=O)NCC(=O)OCC(=O)C(C)(C)C)cc1` here?
A: Its Potency is “inactive”.

Q: Which Potency does the source give for `CC1=C(C(=O)N2CCCC(C(=O)c3cccc4ccccc34)C2)OCCO1` (stereo not given) here?
A: Its Potency is inconclusive: 13.1 µM [inhibitor, single point].

Q: Which Potency does the source give for `COC(=O)Cn1ccc2cc(S(=O)(=O)N3CCCCCC3)ccc21` here?
A: Its Potency is inconclusive: 10.4 µM [inhibitor, single point].

Q: With `O=[N+]([O-])c1cccc(CSc2nc3ccccc3[nH]2)c1` as the compound, how does the Potency read?
A: Its Potency is “inactive”.

Q: With `CCC(=O)NCC(c1cccs1)N1CCOCC1` (stereo not given) as the compound, how does the Potency read?
A: The Potency was inconclusive: 0.0026 µM [inhibitor, full curve, poor fit].

Q: For `CCCn1c(N2CCN(CC(=O)c3c[nH]c4ccccc34)CC2)nc2c1c(=O)[nH]c(=O)n2C`, which Potency is on record?
A: The Potency was active: 0.738 µM.

Q: For `COc1cccc2c(=O)n(CC(=O)Nc3ccc(F)cc3F)ccc12`, which Potency is on record?
A: The Potency was “inactive”.

Q: Which Potency does the source give for `CCOc1ccc(C(F)(F)F)cc1NC(=O)c1ccc(OC)c([N+](=O)[O-])c1` here?
A: The Potency was inconclusive: 0.465 µM [inhibitor, full curve, poor fit].
